From patent US5298491A, “Derivatives of endogenous mediators, their salts, method of preparation, applications and compositions in which they are present” (priority 1990, dated 1994)
The name of at least one read-out is uncertain.

System: thyroxine binding proteins
Assay: Binding of thyroxine derivatives to thyroxine binding proteins (normal human serum, dextran charcoal precipitation)
Conditions: dextran charcoal 5 min at 4° C

Structure (SMILES) | binding which persists relative to the initial binding [%]
CC(C)(C)OC(=O)N[C@@H](Cc1cc(I)c(Oc2cc(I)c(OCC(=O)O)c([125I])c2)c(I)c1)C(=O)O [BOC[^123 I]-T4 --O--CH2 --COOH] | 80
N[C@@H](Cc1cc(I)c(Oc2cc(I)c(OCC(=O)O)c([125I])c2)c(I)c1)C(=O)O [[^125 I ]T4 --O--CH2 --COOH] | 75
